From ChEMBL document CHEMBL3045848, “Microwave-assisted solvent-free synthesis of biologically active novel heterocycles from 3-formylchromones” (2011)

Test system: Candida albicans
Test: Antifungal activity against Candida albicans IOA-109 at 30 ug/disk after 18 to 48 hr
Format: functional, organism-based

Work on NYSTATIN yielded an inhibition zone (IZ) of 20 mm.
